Where “and” joins values, the source holds several entries; their conditions need not be identical. Equal values may be shown once. Not every detail of the peptide structures is certain; ends, links or a residue may be inferred. Residues, ends and D or L forms follow the SMILES beside them.
Test system: prostate
Experiment: Intraprostatic infusion in rats, prostate volume and histology at 72 hours
Assay type: in vivo, Male Sprague-Dawley rats
Details: rat, 300 µl of 1 mg/mL in PBS pH 7.4 (1.0 mg/kg); for histological changes in prostate: intraprostatic infusion, H & E sections

SMILES | histological changes in prostate | reduction in prostate volume (intraprostatic open infusion, compared to untreated or PBS treated controls, volume estimated from mean diameter of sections, 1 mg/kg)
CSCC[C@H](N)C(=O)N[C@@H](C)C(=O)N[C@@H](CCC(N)=O)C(=O)N[C@@H](CO)C(=O)N[C@@H](CCCNC(=N)N)C(=O)N[C@@H](CC(C)C)C(=O)N[C@H](C(=O)N[C@@H](C)C(=O)N[C@H](C(=O)N[C@@H](CO)C(=O)N[C@@H](C)C(=O)N[C@@H](CO)C(=O)N[C@@H](CCCNC(=N)N)C(=O)N[C@H](C(=O)N[C@@H](CCC(N)=O)C(=O)O)C(C)C)[C@@H](C)O)[C@@H](C)O [NTP[112] peptide #1] (H-MAQSRLTATSASRVQ-OH) | significant cell loss and atrophy | 
CC[C@H](C)[C@H](N)C(=O)N[C@@H](CC(=O)O)C(=O)N[C@@H](CCC(N)=O)C(=O)N[C@@H](CCC(N)=O)C(=O)N[C@H](C(=O)N[C@@H](CC(C)C)C(=O)N[C@@H](CO)C(=O)N[C@@H](CCCNC(=N)N)C(=O)N[C@H](C(=O)N[C@@H](CCCCN)C(=O)N[C@@H](CC(C)C)C(=O)N[C@@H](CCC(=O)O)C(=O)N[C@H](C(=O)N[C@@H](CCCCN)C(=O)N[C@@H](CCCNC(=N)N)C(=O)N[C@@H](CS)C(=O)N[C@@H](CC(C)C)C(=O)O)[C@@H](C)CC)[C@@H](C)CC)C(C)C [NTP[122] peptide #1] (H-IDQQVLSRIKLEIKRCL-OH) | extensive loss of glandular epithelium, flattening and atrophy | 45% and > 40%
